Taken from: PubChem BioAssay AID504808 (Drosophila RNAi Screening Center, 2011)
Aim: 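Chromatin factors that keep E2F targets switched off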 (primary screen). System: Drosophila S2 cells. Reagents: long dsRNA against Drosophila genes. Read-out: 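Dual luciferase plate measurements; E2F-specific signal taken as firefly over Renilla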. Scale: E2F firefly: higher = more E2F reporter activity; Renilla normaliser: higher = more normaliser reporter signal. Hit rule: 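Called active if the normalised E2F reporter went up by over 50%; the cutoff is arbitrary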.
The screen tested about 21,000 reagents; below is an unselected part of those that have a named target and a result. In the full data, 18 (0.084%) are marked active. 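Raw counts without plate normalisation, one of two replicates; the ratio scores behind the calls were not deposited.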 The numbers tell different reagents against one gene apart. A plus sign joins genes that one reagent is predicted to hit. Not given: the amount of reagent, the time to read-out.

Target gene	dsRNA no.	E2F firefly, rep 1	Renilla normaliser, rep 1	call
AsnRS-m (GeneID 36909)	1	1.50e5	5017	inactive
Ide (GeneID 40248)	1	70633	3386	inactive
CG16863 (GeneID 34784)	1	1.08e5	4383	inactive
CG13423 (GeneID 37315)	1	1.37e5	4456	inactive
CG14492 (GeneID 37045)	1	1.54e5	5058	inactive
Acsf2 (GeneID 33766)	1	1.52e5	4780	inactive
Rpt4 (GeneID 31567)	1	37252	4499	inactive
CG14079 (GeneID 40086)	1	1.44e5	7163	inactive
CG12288 (GeneID 35027)	1	1.01e5	4321	inactive
dpr16 (GeneID 40619)	1	1.14e5	5710	inactive
dpr16 (GeneID 40619)	2	46539	3448	inactive
fz2 (GeneID 40090)	1	65297	2637	inactive
fz2 (GeneID 40090)	2	75921	3914	inactive
fz2 (GeneID 40090)	3	1.25e5	6294	inactive
CG32454 (GeneID 318037)	1	69584	3708	inactive
peng (GeneID 33112)	1	1.36e5	6987	inactive
Npc2h (GeneID 43649)	1	1.25e5	6468	inactive
faf (GeneID 43749)	1	59659	4279	inactive
AstC-R1 (GeneID 40020)	1	1.61e5	7421	inactive
Lhr (GeneID 36957)	1	69236	3021	inactive
Bin1 (GeneID 41965)	1	1.13e5	6445	inactive
Cyp12a4 (GeneID 42294)	1	1.41e5	7954	inactive
tinc (GeneID 42148)	1	1.40e5	7159	inactive
tinc (GeneID 42148)	2	1.48e5	7579	inactive
tinc (GeneID 42148)	3	1.15e5	6340	inactive
tinc (GeneID 42148)	4	1.14e5	6161	inactive
Spn43Aa (GeneID 45041)	1	90085	3206	inactive
SMC5 (GeneID 326215)	1	74772	2984	inactive
Fie (GeneID 38452)	1	77267	3962	inactive
CG33160 (GeneID 326265)	1	1.08e5	4910	inactive
Appl (GeneID 31002)	1	1757	1011	inactive
nopo (GeneID 37083)	1	64042	3191	inactive
Mvk + CG33672 + spt4	1	1.38e5	5621	inactive
Mvk + CG33672 + spt4	2	3173	217	inactive
Pgant5 (GeneID 326151)	1	81550	2939	inactive
CG3769 (GeneID 34262)	1	1.45e5	4622	inactive
RpL18 (GeneID 38794)	1	99486	2606	inactive
shtd (GeneID 32473)	1	8141	800	inactive
CG31223 (GeneID 326127)	1	64962	3854	inactive
CG12679 (GeneID 33031)	1	1.45e5	6779	inactive
Hpr1 (GeneID 40723)	1	66045	3074	inactive
Oda (GeneID 36307)	1	96665	4128	inactive
Naa30A (GeneID 31079)	1	1279	960	inactive
CG16935 (GeneID 36540)	1	96146	4078	inactive
CG2652 (GeneID 31250)	1	74526	848	inactive
ss (GeneID 41988)	1	1.28e5	6836	inactive
Tret1-2 (GeneID 36249)	1	1.04e5	4360	inactive
tin (GeneID 42536)	1	1.19e5	5564	inactive
spen (GeneID 44205)	1	81436	3789	inactive
CG34409 (GeneID 5740854)	1	1.38e5	6888	inactive
Mst57Da + alpha4GT2	1	97144	2359	inactive
CG17724 (GeneID 246682)	1	3002	181	inactive
Rpp25 (GeneID 35574)	1	99309	4159	inactive
SmF (GeneID 36314)	1	66033	4219	inactive
CG12209 (GeneID 36077)	1	1.41e5	4506	inactive
ND-B17 (GeneID 34925)	1	99237	4854	inactive
GstD11 (GeneID 41512)	1	1.55e5	6691	inactive

5 entries from above, showing only “Renilla normaliser, rep 1”:
CG13423 (GeneID 37315)	4456
CG14492 (GeneID 37045)	5058
Acsf2 (GeneID 33766)	4780
Rpt4 (GeneID 31567)	4499
CG14079 (GeneID 40086)	7163
